Test results: patent publication US20250277794A1, “SQSTM1 AND ITS USE IN CANCER THERAPY” (CENTRE NATIONAL DE LA RECHERCHE SCIENTIFIQUE, priority 2020, published 2025)
At least one structure is not confirmed: it was looked up by name or label, or the drawing left a doubt.

Tested on: HLA-B and PD-L1 expression in ShC A549 cells
Test: IFN/HLA-B/PD-L1 pathway expression (qRT-PCR, western blot, flow cytometry) in shControl A549 cells
Type: cell-based, human
Conditions: co-treatment with Cisplatin 10 μM; MRT 67307 10 μM, Ruxolitinib 5 μM; FIG. 26

N#CC[C@H](C1CCCC1)n1cc(-c2ncnc3[nH]ccc23)cn1 [ruxolitinib, Ruxolitinib]
Block of Cisplatin ability to induce IFN/HLA B/PD-L1: sufficient to block
